Test results reported in PubChem BioAssay AID588590 (National Center for Advancing Translational Sciences (NCATS), 2011).
The campaign covered roughly 390,000 compounds. About 4,000 (1%) were called active. Inconclusive results, whose numbers are uncertain, are shown with a selection of clear calls. Calls follow the shape of the dose curve; as a rule, active = well fitted inhibition curve with a large enough effect; inconclusive = small, poorly fitted or top-dose-only effect, or another doubt; inactive = no such curve, though single readings can be large or run the other way. Potencies of inconclusive entries are doubtful fits and often do not repeat.

Amino acid sequences for entries named in this document (tags omitted). A change or cut given only in a name is not applied to a line headed by its entry.
UniProt Q9UNA4: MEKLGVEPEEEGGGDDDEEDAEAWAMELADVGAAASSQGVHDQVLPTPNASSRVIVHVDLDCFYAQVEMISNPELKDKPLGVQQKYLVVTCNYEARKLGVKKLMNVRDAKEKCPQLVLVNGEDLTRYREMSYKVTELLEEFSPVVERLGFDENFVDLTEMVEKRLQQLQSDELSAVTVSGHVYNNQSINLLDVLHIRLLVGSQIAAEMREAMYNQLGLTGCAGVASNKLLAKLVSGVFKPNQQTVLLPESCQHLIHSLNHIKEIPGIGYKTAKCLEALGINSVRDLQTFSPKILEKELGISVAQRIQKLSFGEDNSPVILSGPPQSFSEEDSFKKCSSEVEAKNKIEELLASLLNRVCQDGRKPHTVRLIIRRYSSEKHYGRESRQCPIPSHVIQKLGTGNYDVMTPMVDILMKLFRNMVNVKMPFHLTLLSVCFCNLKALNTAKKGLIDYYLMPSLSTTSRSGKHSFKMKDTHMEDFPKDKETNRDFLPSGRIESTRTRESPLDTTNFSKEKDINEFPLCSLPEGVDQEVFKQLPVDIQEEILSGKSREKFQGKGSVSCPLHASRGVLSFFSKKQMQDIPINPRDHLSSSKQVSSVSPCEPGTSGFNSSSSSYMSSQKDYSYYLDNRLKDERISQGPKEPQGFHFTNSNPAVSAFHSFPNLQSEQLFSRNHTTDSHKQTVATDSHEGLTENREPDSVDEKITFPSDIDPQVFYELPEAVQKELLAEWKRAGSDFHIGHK

These compounds were tested against DNA polymerase iota (Homo sapiens) (UniProt Q9UNA4) (assay: qHTS for Inhibitors of Polymerase Iota). Details: Pol iota fluorescent replication assay, 10 min; series mostly up to 115 µM; activity, negative = inhibition: at the top concentration.
Summary of the method: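 Pol iota at 10 nM preincubated 15 min with compounds at room temperature; reaction started with fluorescent substrate, 50 nM final. Fluorescence read kinetically at 0 and 10 min; buffer-only wells as negative control.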
Potency is read from the fitted curve at half-maximal effect.

Row | SMILES | Potency | activity, negative = inhibition
1 | COc1ccc(CCNC(=O)c2cc3c(s2)-c2ccccc2OC3)cc1OC | inconclusive: 70.8 µM [inhibitor, partial curve] | –
2 | CN(C(=O)CSc1nnc(-c2ccc(Cl)cc2)n1C)C1CCS(=O)(=O)C1 (stereo not given) | – | inactive: 11.4%
3 | O=C(Nc1ccccc1Cl)c1ccc(C(=O)Nc2ccccc2Cl)cc1 | inconclusive: 89.1 µM [inhibitor, partial curve, poor fit] | –
4 | CC1(C)CC(NC(=O)C2CCN(S(=O)(=O)c3ccccc3C(F)(F)F)CC2)CC(C)(C)N1 | inconclusive: 89.1 µM [inhibitor, single point] | –
5 | CCC(C)NC(=O)C1CCN(S(=O)(=O)c2cc([N+](=O)[O-])ccc2Cl)CC1 (stereo not given) | – | inactive: 57.7%
6 | CCCCN(C)C1CCN(C(=S)Nc2ccc(OC)cc2)CC1 | inconclusive: 89.1 µM [inhibitor, single point] | –
7 | NS(=O)(=O)c1ccc(CCNc2ncnc3c2c(-c2ccccc2)cn3-c2ccc(F)cc2)cc1 | inconclusive: 10 µM [inhibitor, full curve, poor fit] | –
8 | O=C(CCN1C(=O)/C(=C/c2ccc3c(c2)OCO3)SC1=S)Nc1ccc(C(=O)O)cc1 | inconclusive: 25.1 µM [inhibitor, single point] | –
9 | COc1cccc(CNC(=O)CSc2nnc(C)c3c(C)n(-c4ccccc4)nc23)c1OC | – | inactive: 1.53%
10 | CCOC(=O)C1CCN(C(=O)c2ccc(OCC(=O)Nc3ccc(OCC)cc3)c(OC)c2)CC1 | inconclusive: 70.8 µM [inhibitor, partial curve, poor fit] | –
11 | COc1cccc2cc(-c3nc(-c4cccs4)cs3)c(=O)oc12 | inconclusive: 28.2 µM [inhibitor, full curve, poor fit] | –
12 | CCN(CC)S(=O)(=O)c1ccc2[nH]cc(C(=O)NCCc3ccccc3)c(=O)c2c1 | inconclusive: 89.1 µM [inhibitor, single point] | –
13 | CCOC(=O)c1c(S(=O)(=O)NCC(=O)Nc2ccc(F)cc2C)c(C)n(C)c1C | – | inactive: 10.7%
14 | C/C(=N\NC(=O)c1cccc(S(=O)(=O)N2CCOCC2)c1)c1ccc(C#N)cc1 | – | inactive: 19%
15 | Cc1ccc(CCNC(=O)c2cn(C)c3ccc(S(=O)(=O)N4CCC(C)CC4)cc3c2=O)cc1 | inconclusive: 89.1 µM [inhibitor, single point] | –
16 | CC1(C)OC(=O)N(c2ccccc2)C12C=Cc1cc(Br)ccc1O2 (stereo not given) | inconclusive: 11.2 µM [inhibitor, partial curve, poor fit] | –
17 | Fc1ccc(-[n+]2nc(Nc3ccccc3)sc2-c2cccc(Cl)c2Cl)cc1 | inconclusive: 39.8 µM [inhibitor, single point] | –
18 | O=C(O)c1ccc2c(c1)C(=O)N(c1cccc(C(=O)/C=C/c3ccccc3)c1)C2=O | inconclusive: 1.58 µM [inhibitor, partial curve, poor fit] | –
19 | COc1cccc(-n2cc(C(=O)OCc3ccc(Cl)cc3)c3ccccc3c2=O)c1 | – | inactive: -11.9%
20 | Cc1ccccc1NS(=O)(=O)c1ccc(C(=O)NCC(c2ccco2)N(C)C)cc1 (stereo not given) | inconclusive: 89.1 µM [inhibitor, partial curve, poor fit] | –

Row | SMILES | Potency | activity, negative = inhibition
21 | CN1CCN(c2nc(-c3ccc(C(C)(C)C)cc3)nc3ccccc23)CC1 | inconclusive: 3.55 µM [inhibitor, partial curve, poor fit] | –
22 | CN1C(=O)C2C(c3ccc(N(C)C)cc3)=NN(Cc3ccccc3)C2C1=O (stereo not given) | – | inactive: 25.2%
23 | O=C(Nc1ccc(Oc2cccnc2)cc1)C1CCN(Cc2cc(Cl)ccc2O)CC1 | inconclusive: 25.1 µM [inhibitor, full curve, poor fit] | –
24 | CCOC(=O)c1c(C)oc2nc(C)nc(NCc3cccc(Cl)c3)c12 | – | inactive: -0.529%
25 | CCOC(=O)c1c(CSc2ccccc2)n(C)c2cc(Br)c(OCC(O)CNC(CO)(CO)CO)cc12 (stereo not given) | inconclusive: 15.8 µM [inhibitor, full curve, poor fit] | –
26 | Cc1cccc(N2C(=O)/C(=C\c3ccc(C(=O)O)cc3)c3ccccc3C2=O)c1 | – | inactive: 46.4%
27 | CCCCNCCCOc1cccc(Cl)c1 | inconclusive: 89.1 µM [inhibitor, single point] | –
28 | COC(=O)c1ccc(CC(=O)c2ccc(O)cc2O)o1 | – | inactive: 8.41%
29 | CC(C)NC(=O)COC(=O)c1ccc(Cl)c(S(=O)(=O)N2CCCC2)c1 | inconclusive: 112 µM [inhibitor, single point] | –
30 | COc1ccc(C2CCCN2C(=S)Nc2ccc(C)cc2Cl)cc1OC (stereo not given) | – | inactive: 24.9%
31 | CCOC(=O)c1noc2ncn(CC(=O)Nc3cccc(Cl)c3)c(=O)c12 | inconclusive: 3.16 µM [inhibitor, partial curve, poor fit] | –
32 | O=C(CSc1ccc(-c2ccccn2)nn1)c1ccc([N+](=O)[O-])cc1 | inconclusive: 70.8 µM [inhibitor, partial curve, poor fit] | –
33 | COc1ccc2c(Sc3ccc(Cl)cc3)c(C(=O)N3CCC(C)CC3)[nH]c2c1 | inconclusive: 39.8 µM [inhibitor, partial curve, poor fit] | –
34 | CC1=C(C(=O)OC(C)C)C(c2ccccc2Cl)CC(=O)N1 (stereo not given) | inconclusive: 39.8 µM [inhibitor, single point] | –
35 | COCCn1c(=N)c(S(=O)(=O)c2ccc(F)cc2)cc2c(=O)n3cccc(C)c3nc21 | inconclusive: 79.4 µM [inhibitor, single point] | –
36 | O=C(Nc1ccccc1)C1C2/C=C\CCCCC21 (stereo not given) | inconclusive: 63.1 µM [inhibitor, single point] | –
37 | CCOC(=O)N1CCC(N2C(=O)c3ccccc3C2Nc2cc(C(=O)OC)cc(C(=O)OC)c2)CC1 (stereo not given) | inconclusive: 17.8 µM [inhibitor, partial curve, poor fit] | –
38 | CCC1CC=CC2C1C(=O)N(Cc1ccccc1)C2c1ccc(OC)c(Cl)c1 (stereo not given) | – | inactive: -0.804%
39 | O=C(c1cc(COc2c(F)cccc2F)on1)N1CCc2ccccc2C1 | inconclusive: 100 µM [inhibitor, single point] | –
40 | CC(C)(C)c1ccc(C(=O)Nc2sc3c(c2C(=O)O)CCC3)cc1 | inconclusive: 25.1 µM [inhibitor, full curve, poor fit] | –

Whole records as entered above. Order of values: Potency	activity, negative = inhibition
O=C(Nc1ccccc1)C1C2/C=C\CCCCC21 (stereo not given) as listed: inconclusive: 63.1 µM [inhibitor, single point]	–
CCOC(=O)c1c(C)oc2nc(C)nc(NCc3cccc(Cl)c3)c12 as listed: –	inactive: -0.529%
Cc1cccc(N2C(=O)/C(=C\c3ccc(C(=O)O)cc3)c3ccccc3C2=O)c1 as listed: –	inactive: 46.4%
